In paper PMC7819943, “Rice protein-binding microarrays: a tool to detect cis-acting elements near promoter regions in rice” one finds binding signal data, which are given here for 42 sequences.

Some of the results follow.

The test deals with T1, OsSMF1 (Oryza sativa, UniProt Q6ZLB0 1-436).
T1 sequence: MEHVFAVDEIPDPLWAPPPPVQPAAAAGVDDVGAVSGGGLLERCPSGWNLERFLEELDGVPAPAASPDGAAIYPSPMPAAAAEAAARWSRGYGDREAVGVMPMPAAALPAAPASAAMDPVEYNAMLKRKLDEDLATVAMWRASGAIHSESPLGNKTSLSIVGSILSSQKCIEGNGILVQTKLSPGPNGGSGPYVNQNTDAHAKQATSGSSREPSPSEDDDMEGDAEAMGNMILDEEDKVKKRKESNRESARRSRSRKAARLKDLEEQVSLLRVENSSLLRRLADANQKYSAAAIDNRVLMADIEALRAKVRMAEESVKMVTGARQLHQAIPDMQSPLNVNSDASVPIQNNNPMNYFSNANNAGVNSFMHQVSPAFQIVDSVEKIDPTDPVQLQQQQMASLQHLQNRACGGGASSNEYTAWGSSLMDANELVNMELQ
The test can be described thus: protein-binding microarray (RPBM); PBS, 2% BSA, 51.3 ng/ul salmon testes DNA, 50 uM zinc acetate, 200 nM TF, 25 C, 1 h; high values mean tight binding. Particulars: protein: recombinant; tags: N-terminal polyhistidine and DsRed monomer fusion (pET32a); chain copies: 2; label: CyDye5-dUTP incorporated in the synthesized complementary strand; 3' TTTTT single-stranded linker to array surface; dsDNA, one strand shown. The gist of the method: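 Using Ni–NTA, transcription factors fused N-terminally to polyhistidine and DsRed were purified after expression in E. coli BL21-CodonPlus. These were incubated at 200 nM with a blocked, double-stranded custom Agilent array for 1 h at 25 °C in a buffer containing 50 µM zinc acetate, and the array was washed. The binding signal is per-feature fluorescence intensity (arbitrary units) on an Axon 4000B scanner.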
With “GGAGGGGTATGGAAGGGATCAAAATCAAATTTTAGGGGTACGGAGTCACCTAGTGCAG”, the binding signal is 3160 fluorescence intensity (a.u.).
The same measure for “CTGACCCTTGCATCCCAACTACTAGATATAATTGTGGATACGGAGTCACCTAGTGCAG”: 3610 fluorescence intensity (a.u.); for “ACACGTGCCTCGTCCCACCTGTCCGCGTCACCCGTCTCTCCGGAGTCACCTAGTGCAG”: 7100 fluorescence intensity (a.u.); for “CACGCAGTAGGGATCGAGGATGTCGTACGCGTACCTCTTCCGGAGTCACCTAGTGCAG”: 26100 fluorescence intensity (a.u.).
For “AGGGGCACCCTCGTAATTTCCACGCACCCAAATTTCAAACCGGAGTCACCTAGTGCAG”, the binding signal was 3630 fluorescence intensity (a.u.).
With “TGAGAGTTACTGATCGAACACGTACTATAATTATATAATACGGAGTCACCTAGTGCAG” the figure was 3280 fluorescence intensity (a.u.); with “CAAGATGAATCTTTTAAGCCTAATTGCGTCATGATTTGACCGGAGTCACCTAGTGCAG”, 7370 fluorescence intensity (a.u.); with “AGGCCGCGCTCCTCACCCGCCACGCGCTCCACTCCAACTGCGGAGTCACCTAGTGCAG”, 4680 fluorescence intensity (a.u.).
The same measure for “TCGGTCGTTCCGCCGTAGGCGTGGCCGGGGAGTAATCCTACGGAGTCACCTAGTGCAG”: 32000 fluorescence intensity (a.u.); for “GCCGATTTGTTCACGTGACGTGTGCAGGCACACACTGGCCCGGAGTCACCTAGTGCAG”: 15400 fluorescence intensity (a.u.); for “GGTATATATATATATTTCATCGAGTACACATCACAATTTGCGGAGTCACCTAGTGCAG”: 4280 fluorescence intensity (a.u.).
Turning to “TGCTTGCATCAAAGCCCCAGTAGCTAAGCTAACAGTAGTGCGGAGTCACCTAGTGCAG”, the binding signal is 18400 fluorescence intensity (a.u.).
The same measure for “ATAAAATATTTTGATGCACATTTTACAAATTTTACTGGTGCGGAGTCACCTAGTGCAG”: 3420 fluorescence intensity (a.u.).
Regarding “TCCGACTCGTCGCCGTCGTTGCCGTCATTAAACCGGCTTTCGGAGTCACCTAGTGCAG”, the binding signal was 3590 fluorescence intensity (a.u.).
The same measure for “CTCTCACCATGCAAGATTTCCTTAGATTTGAGTTGAGTCACGGAGTCACCTAGTGCAG”: 3150 fluorescence intensity (a.u.).
In the case of “TCGCTGATGAAAATGATGAGCATGGTGAGGGGAAGAAGGGCGGAGTCACCTAGTGCAG”, the binding signal was 22400 fluorescence intensity (a.u.).
On to “GTATTAAGATGTGTCATATCCAGCGTTTACAACTCCGAGACGGAGTCACCTAGTGCAG”, for which the binding signal is 6050 fluorescence intensity (a.u.).
For “ACCATCACTAACTTTAGATGACGCGATGTGGATGTAGGTCCGGAGTCACCTAGTGCAG”, the binding signal is 6640 fluorescence intensity (a.u.).
On to “TCAGCGGGCATGGCCGGGGATTAACGCGCGCGCGTGGACACGGAGTCACCTAGTGCAG”, for which the binding signal was 3770 fluorescence intensity (a.u.).
The same measure for “CCGCTCGCCGCCGGTTCGGAGACCGCGTCACTGATTGGCCCGGAGTCACCTAGTGCAG”: 4860 fluorescence intensity (a.u.); for “ATTGTGAAGAAATTTTGCCACATTTGCATTACCATTGGCTCGGAGTCACCTAGTGCAG”: 3860 fluorescence intensity (a.u.); for “CTGCACGGCCGCCATGATTCATCATCATTCGTAGGCTCATCGGAGTCACCTAGTGCAG”: 3380 fluorescence intensity (a.u.).
The same measure for “GCCAAGGTGGTGGACGCCCGACGTGAAGCTGCCCTCCACCCGGAGTCACCTAGTGCAG”: 3250 fluorescence intensity (a.u.); for “CCCACATGTCCGTGACCCCGCAACGTCTCCACCTTTTCGGCGGAGTCACCTAGTGCAG”: 3540 fluorescence intensity (a.u.).
With “GGCCGTACGTCACGACTCCGTACGTGGCCACGTTACGCAGCGGAGTCACCTAGTGCAG” the figure was 6440 fluorescence intensity (a.u.); with “AAAGAAAAGCACGAATGATGTGTATTTTAACGTGTACATGCGGAGTCACCTAGTGCAG”, 4870 fluorescence intensity (a.u.); with “GGAAGGCCACGACAATCCATTTTAAGTCGTATAATTAACCCGGAGTCACCTAGTGCAG”, 3180 fluorescence intensity (a.u.).
In the case of “CATGCCGGCTAAACACATGCATGCGTGTGTGATGCGTGTGCGGAGTCACCTAGTGCAG”, the binding signal was 4980 fluorescence intensity (a.u.).
Consider “CGTCATCCTCGTCATTGAATCCCTTGTCATCGAAGAACGGCGGAGTCACCTAGTGCAG”, for which the binding signal was 5130 fluorescence intensity (a.u.).
With “TTGCTGCAGTTCTCGTATGCTTCCTAGTACTATCTGCGTTCGGAGTCACCTAGTGCAG” the figure was 3230 fluorescence intensity (a.u.); with “CTTCTGTTGCTCTCTTCAACAACTGTATGGGCCCAAGCCCCGGAGTCACCTAGTGCAG”, 19000 fluorescence intensity (a.u.).
For the sequence “TTCAGTCGCTGACATCAGTTCAGCCTGACTTGTTCCAATACGGAGTCACCTAGTGCAG”, the binding signal is 3660 fluorescence intensity (a.u.).
With “ATATATATATATATATATATGGCAACGTAATCCTTCTGTTCGGAGTCACCTAGTGCAG” the figure was 3440 fluorescence intensity (a.u.).
Take “CTCTGGGTAGTTATGACGTTATACTGGGTATGGATTGGCTCGGAGTCACCTAGTGCAG”: the binding signal was 4060 fluorescence intensity (a.u.).
Turning to “GCATGGGCAGCCTAGCATGCTTGCGTGGACAGTCTGGCGGCGGAGTCACCTAGTGCAG”, the binding signal was 12000 fluorescence intensity (a.u.).
With “TTTTAAAATAGTGTGGGCCATGTGGGCCCCACATGTCAGTCGGAGTCACCTAGTGCAG” the figure was 3610 fluorescence intensity (a.u.); with “ATCTCATGGGCCATGACGTATACAAACCTATATGGGCCTTCGGAGTCACCTAGTGCAG”, 4070 fluorescence intensity (a.u.).
The same measure for “CTGGGTCACAGGTAGTCGCTTCATCGGCAGCCGCGTTGCCCGGAGTCACCTAGTGCAG”: 29000 fluorescence intensity (a.u.).
Turning to “GATCTTATTGTGGGCGGCTGGCTGACTGTTGCTGTTGTATCGGAGTCACCTAGTGCAG”, the binding signal was 3580 fluorescence intensity (a.u.).
With “ACATCCGCGAAAAGGAGGAGGAAACAGGCGAAGCGAGGAGCGGAGTCACCTAGTGCAG” the figure was 3660 fluorescence intensity (a.u.); with “AATAAGTAGCTAATGCTTATGTGTTACTCTACCATTGGATCGGAGTCACCTAGTGCAG”, 5760 fluorescence intensity (a.u.).
With “ATGGACAAACATTACCAAACAGTCACTAATTCTACTACAACGGAGTCACCTAGTGCAG” the figure was 3560 fluorescence intensity (a.u.).
